Measured values from patent US9526705B2, “Lipidated glycosaminoglycan particles and their use in drug and gene delivery for diagnosis and therapy” (Tel-Aviv University Future Technology Development L.P., priority 2001, dated 2016).
At least one structure is not confirmed: it was looked up by name or label, or the drawing left a doubt.

What was measured:
[1] = Efficiency of entrapment in gagomers (absorbency, ELISA plate reader); assay type: physicochemical; settings: gagomer-entrapped EtBr 25 μM
Protocol: The efficiency of entrapment of drugs or other bioactive agents in the gagomers and the kinetics of drug efflux for small molecular weight drugs were determined using absorbency in an ELISA plate reader, with appropriate wavelengths for each given entrapped entity.

[2] = system: PANC-1 human pancreatic adenocarcinoma cell line; experiment: Entry of EtBr into cells, confocal microscopy; assay type: cell-based; settings: EtBr 25 μM, gagomers […], 60 minutes, room temperature
[3] = system: C6 rat glioblastoma cell line; experiment: Entry of EtBr into cells, confocal microscopy; assay type: cell-based; settings: EtBr 25 μM, gagomers […], 60 minutes, room temperature

CC[n+]1c(-c2ccccc2)c2cc(N)ccc2c2ccc(N)cc21 [EtBr, ethidium bromide]
Efficiency of entrapment [1]: 49.8(±3.1) %
EtBr entry into the cell [2]: Only a negligible amount of the marker has entered the cell
EtBr fluorescence inside the cells [3]: negligible fluorescence inside the cells
